# The other results are listed elsewhere or left out. Repeats are few or missing, and single values can be far off.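 Hepatocyte-like cells derived from human stem cells with CRISPR-disrupted DGUOK model liver mtDNA depletion syndrome. Each well's ATP signal was scored against other wells on the same plate, and drugs scoring 3 or above were primary hits.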 Starred links: 1 amine or outer side, 2 acyl side, 3 side chain; linkers in the order of their positions; H or OH if unused. Positions of bridges follow the written chain, without caps; N, C: chain ends. Non-standard residues stand in square brackets, D forms with d. Residues, ends and D or L forms follow the SMILES beside them. *: point of attachment. X1 = NC1=N[C@@H]([C@H](N[*:1])C(=O)[*:2])C[C@H](O)N1; ΔAla(Z-3-ureido) = NC(=O)N/C=C(\N)C(=O)O; β3hOrn = NCCC[C@H](N)CC(=O)*; Dap = NC[C@H](N)C(=O)O
# Test system: DGUOK Δ14/Δ5 iPSC-derived hepatocyte-like cells (SV20)
# Assay: ATP level (CellTiter-Glo luminescence) Z score relative to plate distribution, under 2-DG glycolysis block; higher = more cellular ATP (rescue of mitochondrial ATP production)
# Conditions: 5 µM; treatment time: day 15 to day 20 of differentiation (5 days); 2-deoxy-D-glucose: 20 mM for 24 h before assay
row,Compound,ATP level
1,COc1c2ccoc2cc2oc(=O)ccc12,inactive: -0.184
2,Cn1c2ncnc-2c(O)n(C)c1=O,inactive: 2.79
3,Cc1ccccc1C(OCCN(C)C)c1ccccc1 (configuration not stated),inactive: -3.2
4,N=C(N)NCCCCN,inactive: -0.101
5,CN1CCOC(c2ccccc2)c2ccccc2C1 (configuration not stated),inactive: -0.698
6,CN1CCC(=C2c3ccccc3CCc3sccc32)CC1,inactive: -3.98
7,CCN(CC)CCOc1ccc(C(=C(Cl)c2ccccc2)c2ccccc2)cc1,inactive: -0.096
8,COc1cc2occ(-c3ccccc3)c(=O)c2c(OC)c1C,inactive: -5.28
9,CCCCNc1ccc(C(=O)OCCN(C)C)cc1,inactive: -1.07
10,CCCCCOC(=O)Nc1nc(=O)n([C@@H]2O[C@H](C)[C@@H](O)[C@H]2O)cc1F,inactive: 0.823
11,CCC1NC(=O)c2cc(S(N)(=O)=O)c(Cl)cc2N1 (configuration not stated),inactive: 0.419
12,CC(O)(P(=O)(O)O)P(=O)(O)O,inactive: 0.23
13,Cc1cnc(C(=O)NCCc2ccc(S(=O)(=O)NC(=O)NC3CCCCC3)cc2)cn1,inactive: 1.83
14,CCc1ccc2c(O)c3c(cc2c1C(=O)OC)C(=O)c1c(O)ccc(O)c1C3=O,inactive: 0.848
15,O=S(=O)(O)c1cc(I)c(O)c2ncccc12,inactive: 0.507
16,CC(=O)O[C@H]1C[C@@H](OC(C)=O)C(C)(C)[C@@H]2C[C@@H](OC(C)=O)[C@@]3(C)C4=CC(=O)O[C@@H](c5ccoc5)[C@]4(C)CC[C@@H]3[C@@]12C,inactive: 1.74
17,O=C1[C@H](CC[C@H](O)c2ccc(F)cc2)[C@@H](c2ccc(O)cc2)N1c1ccc(F)cc1,inactive: 0.0494
18,CC(C)=CCC1=C(O)c2ccccc2C(=O)C1=O,inactive: 0.0566
19,CC(C)NCC(O)c1cc(O)cc(O)c1 (configuration not stated),inactive: 1.27
20,COc1ccc(-c2cc(=O)c3c(OC)c(OC)c(OC)cc3o2)cc1OC,inactive: -0.701
21,C#CCN(C)CCCOc1ccc(Cl)cc1Cl,inactive: -0.396
22,O=C(O)CN(CCN(CC(=O)O)CC(=O)O)CCN(CC(=O)O)CC(=O)O,inactive: -7.83

row,Compound,ATP level
1,OC[C@H]1O[C@@H](O[C@H]2[C@H](O)[C@@H](O)C(O)O[C@@H]2CO)[C@H](O)[C@@H](O)[C@@H]1O (some centres not stated),inactive: 2.36
2,COc1ccc2c(c1)O[C@H]1c3ccc(OC)cc3OC[C@@H]21,inactive: -0.68
3,COc1ccccc1N1CCN(CCCNc2cc(=O)n(C)c(=O)n2C)CC1,inactive: -1.69
4,CC(C)CCCC(C)C1CCC2C3CCC4CC(O)CCC4(C)C3CCC12C (stereo not drawn) [5alpha-CHOLESTANOL],inactive: 0.433
5,COc1nc(N)nc2c1ncn2[C@@H]1O[C@H](CO)[C@@H](O)[C@@H]1O,inactive: -0.391
6,OC[C@H]1O[C@@](CO)(O[C@H]2O[C@H](CO)[C@@H](O)[C@H](O)[C@H]2O)[C@@H](O[C@H]2O[C@H](CO)[C@@H](O)[C@H](O)[C@H]2O)[C@@H]1O,inactive: 0.65
7,CCC(=O)OCC(=O)[C@@]1(OC(=O)CC)[C@@H](C)C[C@H]2[C@@H]3CCC4=CC(=O)C=C[C@]4(C)[C@@]3(Cl)[C@@H](O)C[C@@]21C,inactive: 1.64
8,O=C(/C=C/C=C/c1ccc2c(c1)OCO2)N1CCCCC1,inactive: 0.29
9,CCN(CC)S(=O)(=O)c1ccc(C(=O)O)cc1,inactive: 1.02
10,CCN(CC)Cc1cc(Nc2ccnc3cc(Cl)ccc23)ccc1O,inactive: -2.64
11,Cc1nc2n(c(=O)c1CCN1CCC(c3noc4cc(F)ccc34)CC1)CCCC2O (configuration not stated),inactive: -1.47
12,CCN(CC)CCNC(=O)COc1ccc(OC)cc1,inactive: 0.054
13,CC(=O)OCC1=C(C(=O)O)N2C(=O)[C@@H](NC(=O)Cc3cccs3)[C@H]2SC1,inactive: -11.2
14,CCOc1ccc(NC(=O)CC(C)O)cc1 (configuration not stated),inactive: -0.152
15,COc1c(O)cc2oc3cc(O)c(CC=C(C)C)c(O)c3c(=O)c2c1CC=C(C)C [alpha-MANGOSTIN],inactive: -7.09
16,C=CCCCCCCCCC(=O)O,inactive: 0.773
17,COC(=O)C[C@H]1C(C)(C)[C@@H](OC(C)=O)[C@@H]2CC3C4CC(=O)O[C@@H](c5ccoc5)[C@]4(C)CCC3[C@@]1(C)C2=O (some centres not stated),inactive: -3.99
18,CCCCc1nc(Cl)c(CO)n1Cc1ccc(-c2ccccc2-c2nnn[nH]2)cc1,active: 3.03
19,CC1(C)S[C@@H]2[C@H](NC(=O)Cc3ccccc3)C(=O)N2[C@H]1C(=O)O,inactive: -0.115
20,O=C1CCC(N2C(=O)c3ccccc3C2=O)C(=O)N1 (configuration not stated),inactive: -7.92
21,CC1(C)C[C@@H]2C(=O)CC[C@H]3O[C@]3(C)CC[C@H]21,inactive: 0.242
22,O=C1OC(CN2CCOCC2)CN1/N=C/c1ccc([N+](=O)[O-])o1 (configuration not stated),inactive: -0.681

row,Compound,ATP level
1,CC[n+]1c(-c2ccccc2)c2cc(N)ccc2c2ccc(N)cc21,inactive: -11.7
2,O=C(O)[C@]1(O)C[C@@H](O)[C@@H](O)[C@H](O)C1,inactive: 0.0231
3,O=C(O)CCNC(=O)c1ccc(/N=N/c2ccc(O)c(C(=O)O)c2)cc1,inactive: -0.325
4,C[n+]1ccccc1/C=N/O,inactive: 1.51
5,COc1ccc(/C=C/C(=O)c2cc(O)ccc2O)cc1,inactive: -0.847
6,CCC(C)n1ncn(-c2ccc(N3CCN(c4ccc(OCC5COC(Cn6cncn6)(c6ccc(Cl)cc6Cl)O5)cc4)CC3)cc2)c1=O (configuration not stated),inactive: -18.5
7,Cc1cccc(Nc2ccccc2C(=O)O)c1C,inactive: 1.86
8,C=CCSCC=C,inactive: -4.8
9,C[C@H]1[C@H](OC(=O)CCC(=O)O)O[C@@H]2O[C@@]3(C)CC[C@H]4[C@H](C)CC[C@@H]1[C@@]24OO3,inactive: -16.2
10,O=C(Oc1cccc2cccnc12)c1ccccc1,inactive: 2.16
11,CN1CCC(OC(c2ccccc2)c2ccccc2)CC1,inactive: -3.64
12,COc1cccc(-c2cc(=O)c3ccc(OC)cc3o2)c1,inactive: -1.63
13,C[N+](C)(C)CCO.[Cl-],inactive: -9.09
14,C/C=C1\[C@H]2C=C(C)C[C@]1(N)c1ccc(=O)[nH]c1C2,inactive: -2.81
15,Cc1cc(O)c2c(c1)C(=O)c1cc(O)cc(O)c1C2=O,inactive: 0.884
16,CN(C/C=C/C#CC(C)(C)C)Cc1cccc2ccccc12,inactive: 1.19
17,Fc1ccc([C@@H]2CCNC[C@H]2COc2ccc3c(c2)OCO3)cc1,inactive: -1.21
18,Nc1nc(O)c2ncn(CCC(CO)CO)c2n1,inactive: 0.823
19,C=C1CCC2C(CC2(C)C)C(=O)CCC1O (configuration not stated),inactive: 2.25
20,NC(CO)C(=O)NNCc1ccc(O)c(O)c1O (configuration not stated),inactive: 1.85
21,C[C@H]1COc2c(N3CCN(C)CC3)c(F)cc3c(=O)c(C(=O)O)cn1c23,inactive: -1.27
22,NCCC[C@H](N)CC(=O)N[C@H]1CNC(=O)[C@H]([C@H]2C[C@H](O)NC(N)=N2)NC(=O)/C(=C/NC(N)=O)NC(=O)[C@H](CO)NC(=O)[C@H](CO)NC1=O (β3hOrn-[Dap]SS[ΔAla(Z-3-ureido)][X1]; lactam 1-C),inactive: 1.02

# Laid out differently: results already given.
row | Compound | ATP level
6 | CCC(C)n1ncn(-c2ccc(N3CCN(c4ccc(OCC5COC(Cn6cncn6)(c6ccc(Cl)cc6Cl)O5)cc4)CC3)cc2)c1=O (configuration not stated) | inactive: -18.5
7 | Cc1cccc(Nc2ccccc2C(=O)O)c1C | inactive: 1.86
9 | C[C@H]1[C@H](OC(=O)CCC(=O)O)O[C@@H]2O[C@@]3(C)CC[C@H]4[C@H](C)CC[C@@H]1[C@@]24OO3 | inactive: -16.2
14 | C/C=C1\[C@H]2C=C(C)C[C@]1(N)c1ccc(=O)[nH]c1C2 | inactive: -2.81
22 | NCCC[C@H](N)CC(=O)N[C@H]1CNC(=O)[C@H]([C@H]2C[C@H](O)NC(N)=N2)NC(=O)/C(=C/NC(N)=O)NC(=O)[C@H](CO)NC(=O)[C@H](CO)NC1=O (β3hOrn-[Dap]SS[ΔAla(Z-3-ureido)][X1]; lactam 1-C) | inactive: 1.02

# (next part)

row,Compound,ATP level
1,O=C(NC1CCCCC1)NC1CCCCC1,inactive: -0.988
2,COc1ccc2c(c1)OC[C@@H](Cc1ccc(OC)c(OC)c1)[C@H]2O,inactive: 3
3,NCC[C@H](O)C(=O)N[C@@H]1C[C@H](N)[C@@H](O[C@H]2O[C@H](CN)[C@@H](O)[C@H](O)[C@H]2O)[C@H](O)[C@H]1O[C@H]1O[C@H](CO)[C@@H](O)[C@H](N)[C@H]1O,inactive: -0.858
4,CC(C)=CCOc1cc2oc(=O)ccc2cc1O,inactive: -1.81
5,O=C(O)CSCC(=O)NC1CCSC1=O (configuration not stated),inactive: -1.26
6,COc1cc(/C=C/C(=O)CC(=O)/C=C/c2ccc(O)c(OC)c2)ccc1O,inactive: 0.0931
7,Cc1cc2nc3c(=O)[nH]c(=O)nc-3n(CC(O)C(O)C(O)COP(=O)(O)O)c2cc1C (configuration not stated),inactive: 0.0746
8,CC(=O)OCC[N+](C)(C)C,inactive: 0.172
9,OCCN1C[C@H](O)[C@@H](O)[C@H](O)[C@H]1CO,inactive: 2.93
10,CC(=O)O[C@H]1C[C@@H](OC(C)=O)C(C)(C)C2CC(=O)[C@]3(C)C(CC[C@@]4(C)[C@H](c5ccoc5)OC(=O)[C@H]5O[C@]543)[C@]21C (some centres not stated),inactive: -1.95
11,O=C(O)c1nc2cc(Cl)c(Cl)cc2nc1O,inactive: 1.21
12,Cn1cnc([N+](=O)[O-])c1Sc1ncnc2[nH]cnc12,inactive: -3.83
13,CC(C)C(=O)Nc1ccc([N+](=O)[O-])c(C(F)(F)F)c1,inactive: 1.05
14,CN(C)[C@@H]1C(=O)C(C(N)=O)=C(O)[C@@]2(O)C(=O)C3=C(O)c4c(O)ccc(Cl)c4[C@@H](O)[C@H]3C[C@@H]12,inactive: -2.98
15,O=C(O)CCCC[C@@H]1SC[C@@H]2NC(=O)N[C@@H]21,inactive: -26.4
16,CN1CCN(c2cc3c(cc2F)c(=O)c(C(=O)O)cn3-c2ccc(F)cc2)CC1,inactive: -0.822
17,CC1COc2c(N3CCN(C)CC3)c(F)cc3c(=O)c(C(=O)O)cn1c23 (configuration not stated),inactive: -0.164
18,C[C@H](CCC(=O)O)[C@H]1CC[C@H]2[C@@H]3CC[C@@H]4C[C@H](O)CC[C@]4(C)[C@H]3CC[C@]12C,active: 3.02
19,CC(=O)SCC(Cc1ccccc1)C(=O)NCC(=O)OCc1ccccc1 (configuration not stated),inactive: -0.513
20,COC(=O)C1=C(C)NC(C)=C(C(=O)OC(C)C)C1c1cccc2nonc12 (configuration not stated),inactive: 0.736
21,CC(C)(C)NC(=O)[C@H]1CC[C@H]2[C@@H]3CC[C@H]4NC(=O)C=C[C@]4(C)[C@H]3CC[C@]12C,inactive: -7.11

# Looked up by compound from above, 2 records:
row,Compound,ATP level
1,O=C(NC1CCCCC1)NC1CCCCC1,inactive: -0.988
4,CC(C)=CCOc1cc2oc(=O)ccc2cc1O,inactive: -1.81

# Source: the supplement of paper PMC6289059
